Source: patent US20230049529A1
These are yes or no findings as the source states them, for the method shown. Some binding calls cover weakened binding; strength is not graded here.

Chains of the proteins cited; added tags and fusions are not shown. Residues count along the entry.
UniProt Q02223, residues 1-54: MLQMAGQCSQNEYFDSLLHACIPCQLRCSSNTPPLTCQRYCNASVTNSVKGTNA

Biological target: biotinylated Fc-BCMA (UniProt Q02223)
Assay: ELISA of phage display selected clones on Fc-BCMA

binding: binds
B1: VOO1 Fab (Fab, V domains shown)
VH: QEQLEESGGRLVTPGTPLTLTCTVSGFSLSNYHMSWVRQAPGKGLEWIGFITSGGSTYYASWAKGRFTISRTSTTVDLKITSPTTEDTATYFCARWNGYGGNMWGPGTLVTVSS
VL: DVVMTQTPSSVPAAVGGTVTINCQASQSIDSNLAWFQQKPGQPPNLLIYDASTLASGVPSRFKGSAGKQFTLTISGVQREDAATYYCLGSYSRTEKAFGAGTKVEIK
